Data as given in PubChem BioAssay AID1224830 (NIAID, 2016)
Aim: 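Regulators of TLR4 signalling towards TNF-alpha in macrophage-like cells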 (primary screen). Cells: human THP-1 monocytic leukaemia cells, TNF dual-luciferase reporter clone, PMA-differentiated to macrophage-like cells. Reagents: siRNA pool against human genes, 50 nM. Time to read-out: LPS for 4 h, given about 3 days after siRNA transfection. Treatment: bacterial LPS (TLR4 ligand), 10 ng/ml. Measurement: 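TNF firefly reporter luminescence divided by renilla, normalised to the plate median, then turned into a robust z-score for each replicate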. Direction: TNF reporter robust z-score: higher = stronger TNF reporter response to LPS. Hit rule: 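Each well counts as active if its z-score is over 2.8 or under -1.5; controls are left without a call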.
In all, the deposit lists about 18,000 reagents; this is a random part of them. About 2,900 of them (16%) count as active. 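Calls are made per well; low scores hint the gene aids the LPS response, high scores that it dampens it.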 Unmarked entries are inactive. Repeated entries: four replicate wells of each siRNA pool.

gene knocked down	TNF reporter robust z-score
OR1A2 (GeneID 26189)	1.45
OR1A2 (GeneID 26189)	2.48
OR1A2 (GeneID 26189)	0.53
OR1A2 (GeneID 26189)	2.55
GRM3 (GeneID 2913)	2.97 (active)
GRM3 (GeneID 2913)	-0.58
GRM3 (GeneID 2913)	1.34
GRM3 (GeneID 2913)	3.14 (active)
KCNH5 (GeneID 27133)	-1.43
KCNH5 (GeneID 27133)	-0.81
KCNH5 (GeneID 27133)	-0.92
KCNH5 (GeneID 27133)	-1.28
LHPP (GeneID 64077)	-0.39
LHPP (GeneID 64077)	1.05
LHPP (GeneID 64077)	1.54
LHPP (GeneID 64077)	0.39
NDUFA11 (GeneID 126328)	0.03
NDUFA11 (GeneID 126328)	0.02
NDUFA11 (GeneID 126328)	1.55
NDUFA11 (GeneID 126328)	-0.03
VIRMA (GeneID 25962)	0.13
VIRMA (GeneID 25962)	-0.24
VIRMA (GeneID 25962)	0.06
VIRMA (GeneID 25962)	0.29
AIPL1 (GeneID 23746)	-1.31
AIPL1 (GeneID 23746)	0.34
AIPL1 (GeneID 23746)	-0.46
AIPL1 (GeneID 23746)	1.22
FOXI2 (GeneID 399823)	0.36
FOXI2 (GeneID 399823)	1.38
FOXI2 (GeneID 399823)	1.84
FOXI2 (GeneID 399823)	2.18
APRT (GeneID 353)	-1.41
APRT (GeneID 353)	-0.81
APRT (GeneID 353)	-0.56
APRT (GeneID 353)	-0.66
TTLL6 (GeneID 284076)	-0.11
TTLL6 (GeneID 284076)	-0.98
TTLL6 (GeneID 284076)	-0.15
TTLL6 (GeneID 284076)	0.79
CENPS (GeneID 378708)	-0.37
CENPS (GeneID 378708)	-1.39
CENPS (GeneID 378708)	-0.5
CENPS (GeneID 378708)	0.55
RPL26L1 (GeneID 51121)	-1.13
RPL26L1 (GeneID 51121)	-1.61 (active)
RPL26L1 (GeneID 51121)	-1.73 (active)
RPL26L1 (GeneID 51121)	-0.6
CISD2 (GeneID 493856)	0.56
CISD2 (GeneID 493856)	0.6
CISD2 (GeneID 493856)	-0.17
CISD2 (GeneID 493856)	0.19
BCHE (GeneID 590)	-0.44
BCHE (GeneID 590)	0.29
BCHE (GeneID 590)	0.12
BCHE (GeneID 590)	0.36
C1orf21 (GeneID 81563)	-0.35
C1orf21 (GeneID 81563)	0.37
C1orf21 (GeneID 81563)	0.02
C1orf21 (GeneID 81563)	0.12
RNF38 (GeneID 152006)	1.63
RNF38 (GeneID 152006)	3.51 (active)
RNF38 (GeneID 152006)	5.37 (active)
RNF38 (GeneID 152006)	3.42 (active)
DUSP1 (GeneID 1843)	-0.22
DUSP1 (GeneID 1843)	-0.07
DUSP1 (GeneID 1843)	-0.71
DUSP1 (GeneID 1843)	0.22
TAAR6 (GeneID 319100)	-0.48
TAAR6 (GeneID 319100)	-0.43
TAAR6 (GeneID 319100)	-0.55
TAAR6 (GeneID 319100)	0.4
HTR4 (GeneID 3360)	-0.32
HTR4 (GeneID 3360)	-0.46
HTR4 (GeneID 3360)	-0.23
HTR4 (GeneID 3360)	0.16
MYL6B (GeneID 140465)	-0.74
MYL6B (GeneID 140465)	-1.36
MYL6B (GeneID 140465)	-1.39
MYL6B (GeneID 140465)	-0.95
UBQLNL (GeneID 143630)	0.67
UBQLNL (GeneID 143630)	0.28
UBQLNL (GeneID 143630)	0.29
UBQLNL (GeneID 143630)	0.34
MINPP1 (GeneID 9562)	-1.25
MINPP1 (GeneID 9562)	0.16
MINPP1 (GeneID 9562)	-0.8
MINPP1 (GeneID 9562)	0.39

Hits (from the list above):
gene knocked down	TNF reporter robust z-score
GRM3 (GeneID 2913)	2.97 (active)
GRM3 (GeneID 2913)	3.14 (active)
RPL26L1 (GeneID 51121)	-1.61 (active)
RPL26L1 (GeneID 51121)	-1.73 (active)
RNF38 (GeneID 152006)	3.51 (active)
RNF38 (GeneID 152006)	5.37 (active)
RNF38 (GeneID 152006)	3.42 (active)

Further results follow:
gene knocked down	TNF reporter robust z-score
CRB2 (GeneID 286204)	0.38
CRB2 (GeneID 286204)	-0.39
CRB2 (GeneID 286204)	0.62
CRB2 (GeneID 286204)	1.41
STK17B (GeneID 9262)	0.4
STK17B (GeneID 9262)	0.61
STK17B (GeneID 9262)	1.02
STK17B (GeneID 9262)	0.56
RGS12 (GeneID 6002)	0.64
RGS12 (GeneID 6002)	0.94
RGS12 (GeneID 6002)	-0.15
RGS12 (GeneID 6002)	0.74
PCDHGB2 (GeneID 56103)	-0.04
PCDHGB2 (GeneID 56103)	-0.19
PCDHGB2 (GeneID 56103)	-0.36
PCDHGB2 (GeneID 56103)	-0.4
FBXO43 (GeneID 286151)	-1.24
FBXO43 (GeneID 286151)	0.16
FBXO43 (GeneID 286151)	-1.34
FBXO43 (GeneID 286151)	-0.19
FAM13A (GeneID 10144)	0.03
FAM13A (GeneID 10144)	-0.5
FAM13A (GeneID 10144)	-0.18
FAM13A (GeneID 10144)	0.02
C1orf94 (GeneID 84970)	-1.08
C1orf94 (GeneID 84970)	-0.28
C1orf94 (GeneID 84970)	-0.8
C1orf94 (GeneID 84970)	-0.67
FLI1 (GeneID 2313)	-0.49
FLI1 (GeneID 2313)	-0.07
FLI1 (GeneID 2313)	-0.57
FLI1 (GeneID 2313)	-0.26
SEMG1 (GeneID 6406)	-1.46
SEMG1 (GeneID 6406)	-0.35
SEMG1 (GeneID 6406)	-1.19
SEMG1 (GeneID 6406)	-1.12
ALDH1B1 (GeneID 219)	-0.53
ALDH1B1 (GeneID 219)	-0.23
ALDH1B1 (GeneID 219)	-1.05
ALDH1B1 (GeneID 219)	-0.3
ACOT4 (GeneID 122970)	-0.5
ACOT4 (GeneID 122970)	-1.17
ACOT4 (GeneID 122970)	-1.08
ACOT4 (GeneID 122970)	0.4
REG3A (GeneID 5068)	-0.84
REG3A (GeneID 5068)	-0.47
REG3A (GeneID 5068)	-0.85
REG3A (GeneID 5068)	-0.34
FAM107A (GeneID 11170)	-0.21
FAM107A (GeneID 11170)	-0.43
FAM107A (GeneID 11170)	-0.52
FAM107A (GeneID 11170)	-0.85
